Assay results published in PubChem BioAssay AID445 (National Center for Advancing Translational Sciences (NCATS), 2006).
This is one part of the list. These are further read-outs of the screen, such as a control signal, another cell line or another target. No call is given for them. Most of these compounds were active or inconclusive in the main read-out, so they are no random draw. Potencies come from curve fits of mixed quality, noted in brackets.

Test: IkB Signaling
Details: ABC-DLBCL IkBa-CBG/CBR dual luciferase ratio (green luciferase fused to IkBa over red control in OCI-Ly3 lymphoma cells), 4 h
Method in brief: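 Curves were fitted separately to fusion (green), unfused (red) and ratio luminescence, then classed by r2, magnitude and activity. Cells: OCI-Ly3, 4 h compound plus doxycycline at 37C; 10 uM MG-132 defined full response.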

[1] = measured here: control luc red channel unless noted
[2] = measured here: IkB-luc green channel
[3] = measured here: control luc red channel

With CC(C)(C)c1ccc(OCC(=O)N(Cc2ccco2)Cc2ccccc2F)cc1 the AC50 [1] was 15.8 µM [falling, partial curve].

With COc1cc(OC)cc(-c2nnc(SCC(=O)N3CCC(C)CC3)o2)c1 the AC50 [1] was 25.1 µM [falling, single point].

In the case of COc1ccc(CCNC(=O)CCn2c(=O)c3ccccc3n(CC(=O)Nc3cccc(C)c3)c2=O)cc1OC, the AC50 [1] is reported as 0.631 µM [rising, full curve, poor fit].

In the case of COc1ccc(Nc2oc(-c3ccc(COc4ccc(OC)cc4)o3)nc2C#N)cc1, the AC50 [1] is reported as 6.31 µM [rising, full curve, poor fit].

For CCC(C)NC(=O)C1CCN(C(=O)c2cc3sccc3n2Cc2ccc(Cl)cc2)CC1 (stereo not given), the AC50 [1] was 6.31 µM [falling, partial curve].

For CCc1ccccc1N1CC(c2nc3ccccc3n2CC(C)C)CC1=O (stereo not given), the AC50 [1] was 25.1 µM [falling, single point].

For CCCCN(CC)c1ncnc2c1sc1nc(N3CCOCC3)c3c(c12)CCCC3, the AC50 [1] was 7.94 µM [rising, partial curve].

With Cc1ccc(C)c(S(=O)(=O)c2nnn3c2nc(N2CCCC2)c2sccc23)c1 the AC50 [1] was 39.8 µM [falling, single point].

With O=C1CC(c2cccc(F)c2)C2=C(CCCC2=O)N1 (stereo not given) the AC50 [1] was 5.01 µM [falling, partial curve].

With O=c1nc(-c2ccccc2)c2cc(Cl)ccc2[nH]1 the AC50 [1] was 20 µM [falling, partial curve].

In the case of O=C(CSc1nc2ccccc2c(=O)n1Cc1ccco1)N1CCCCCC1, the AC50 [1] is reported as 15.8 µM [falling, partial curve].

With O=C(c1ccco1)[C@@H]1[C@@H]2C(=O)N(c3ccccc3)C(=O)[C@@H]2C2c3ccccc3C=CN21 (stereo not given in full) the AC50 [1] was 0.794 µM [falling, full curve].

For CC(C)(C)c1ccc(OCCSc2nc(-c3cccs3)nc3cc(=O)[nH]n23)cc1, the AC50 [1] was 39.8 µM [falling, single point].

In the case of COc1cccc2sc(Nc3nnc(-c4ccccc4Cl)o3)nc12, the AC50 [2] is reported as 3.16 µM [rising, partial curve] and the AC50 [3] is reported as 0.398 µM [falling, partial curve].

With CC(=O)Nc1cccc(-c2nnc(SCC(=O)c3cc([N+](=O)[O-])ccc3Br)o2)c1 the AC50 [2] was 6.31 µM [rising, single point] and the AC50 [3] was 31.6 µM [falling, single point].

For COc1cc(C(c2c(C)[nH][nH]c2=O)c2c(C)[nH][nH]c2=O)ccc1OC(=O)c1ccccc1F, the AC50 [1] was 6.31 µM [falling, full curve].

In the case of CCCCn1c2c(c3ccccc31)CCc1nonc1-2, the AC50 [1] is reported as 3.16 µM [rising, full curve].

For CC(=O)c1cccc(Nc2c3c(nc4nc(-c5cccs5)nn24)CCCC3)c1, the AC50 [1] was 12.6 µM [falling, partial curve].

For COC(=O)c1ccc2oc(=O)c(S(=O)(=O)c3ccc(C)cc3)cc2c1, the AC50 [1] was 1.58 µM [falling, full curve, poor fit].

For CCCC(=O)Nc1cccc(-c2nc3cc(C)c(C)cc3o2)c1C, the AC50 [1] was 2.51 µM [falling, full curve].

For COc1ccc(F)cc1NC(=O)C1CCN(c2nc(-c3ccc(OC)c(OC)c3)no2)CC1, the AC50 [1] was 10 µM [falling, partial curve].

For COc1ccc(Nc2ncc(C(=O)Nc3cc(C)ccc3OC)c3ccccc23)cc1, the AC50 [1] was 3.16 µM [falling, full curve].

With O=C(COc1ccc(F)cc1)Nc1cccc(OCc2cc(=O)n3ccccc3n2)c1 the AC50 [1] was 0.158 µM [falling, full curve].

With COc1ccc(NC(=O)CCc2c(C)nc3c(-c4ccccc4)c(C)nn3c2C)cc1Cl the AC50 [1] was 12.6 µM [falling, partial curve].

In the case of Cc1cc(Cl)ccc1NC(=O)CSc1nnc(Cc2cccs2)n1Cc1ccco1, the AC50 [1] is reported as 12.6 µM [falling, partial curve].

For CCOC(=O)c1nnn(C(CC)C(=O)Nc2c(C)cccc2C)c1C(=O)OCC (stereo not given), the AC50 [1] was 3.16 µM [falling, partial curve, poor fit].

In the case of CCN(CC)C(=O)CSc1nnc2[nH]c(=O)cc(C)n12, the AC50 [1] is reported as 0.0501 µM [rising, full curve, poor fit].

In the case of CCc1ccccc1NC(=O)c1cc(-c2cccc(O)c2)on1, the AC50 [1] is reported as 6.31 µM [falling, partial curve].

In the case of Cc1ccc(NC(=O)N2CCN(c3nnc(C)c4c(C)n(-c5ccccc5)nc34)CC2)c(Cl)c1, the AC50 [1] is reported as 0.0794 µM [rising, full curve].

With O=c1oc2ccccc2c(O)c1/C=N/c1nc(-c2ccc(O)c(O)c2)cs1 the AC50 [1] was 2 µM [falling, partial curve].

In the case of CCc1ccccc1NC(=O)CCCN1C(=O)COc2ccc(C)cc21, the AC50 [1] is reported as 0.2 µM [falling, full curve, poor fit].

In the case of CCOc1ccc(-c2cccc(NS(=O)(=O)c3ccc(Cl)s3)c2)nn1, the AC50 [1] is reported as 15.8 µM [falling, partial curve].

In the case of Cc1ccc2c(c1)c1c(c(=O)n(-c3cccc(Cl)c3)c(=O)n1C)n2C, the AC50 [1] is reported as 0.316 µM [falling, full curve].

In the case of COc1ccc(C)cc1S(=O)(=O)N1CCN(c2cccc(C(F)(F)F)c2)CC1, the AC50 [1] is reported as 39.8 µM [falling, single point].

With C[C@@H](COc1ccc(/C=C\c2ccccc2)cc1)[N+](C)(C)C the AC50 [1] was 7.94 µM [falling, full curve] [measured here: IkB-luc green channel].

For CCOC(=O)c1c(NC(=O)c2cc3nc(-c4ccc(OC)cc4)cc(C(F)(F)F)n3n2)sc(C)c1C, the AC50 [1] was 6.31 µM [rising, partial curve].

In the case of CCc1cccc(NC(=O)c2c(C)oc3ncnc(N4CCCCC4)c23)c1, the AC50 [1] is reported as 20 µM [falling, partial curve].

With O=C1CN(C(=O)COc2ccc(Cl)cc2Cl)C(c2ccc(F)cc2)c2cc(F)ccc2N1 (stereo not given) the AC50 [1] was 15.8 µM [falling, partial curve].

For Fc1cccc(Cl)c1CSc1nnnn1-c1ccc2c(c1)OCO2, the AC50 [1] was 20 µM [falling, partial curve].

In the case of CNc1nc(Oc2ccc(=O)[nH]n2)nc(N2CCOCC2)n1, the AC50 [1] is reported as 25.1 µM [rising, partial curve, poor fit].

In the case of COC(=O)C(CC(C)C)NC(=O)c1cc(OC)c(OC)c(OC)c1 (stereo not given), the AC50 [1] is reported as 20 µM [falling, partial curve].

In the case of CC1=C(C#N)C(NC(=O)C2CC2)(C(F)(F)F)C(=O)N1 (stereo not given), the AC50 [1] is reported as 31.6 µM [falling, single point].

For COc1ccc(-n2cc(C(=O)Nc3ccccc3C#N)c3ccccc3c2=O)cc1, the AC50 [1] was 10 µM [falling, partial curve].

In the case of CCOc1ccccc1NC(=O)c1nn(-c2ccc(OC)cc2)c(=O)c2c1c1ccccc1n2C, the AC50 [1] is reported as 0.1 µM [rising, full curve, poor fit].

For O=C(c1ccco1)N1CCN(c2ncnc3c(-c4ccccc4)nsc23)CC1, the AC50 [1] was 39.8 µM [falling, single point].

In the case of Cc1nc(SCCOc2ccc(Cl)cc2)[nH]c(=O)c1Cc1ccccc1, the AC50 [1] is reported as 0.316 µM [falling, full curve, poor fit].

In the case of COc1cccc(-n2cc(C(=O)Nc3ccccc3C(N)=O)c3ccccc3c2=O)c1, the AC50 [1] is reported as 20 µM [falling, single point].

With CCOc1ccc(NC(=O)Cn2c(=O)n(Cc3ccccc3)c(=O)c3c4c(sc32)CN(C(C)=O)CC4)cc1 the AC50 [1] was 39.8 µM [falling, single point].

For Cc1ccccc1CNC(=O)Cn1cc2c(n1)-c1c(oc(C(=O)N3CCCC3)c1C)CC2, the AC50 [1] was 25.1 µM [falling, partial curve].

For COc1ccc2nc(NC(=O)c3nc(SCc4cccc(C)c4)ncc3Cl)sc2c1, the AC50 [1] was 6.31 µM [rising, single point].

In the case of COc1cc(OC)cc(C(=O)Nc2cccc(NC(C)=O)c2)c1, the AC50 [1] is reported as 12.6 µM [falling, partial curve].

For CC1CCCCN1S(=O)(=O)c1ccc2[nH]c(=O)cc(C(=O)NCCc3ccc(Cl)cc3)c2c1 (stereo not given), the AC50 [1] was 3.16 µM [rising, single point].

With COC(=O)c1c(NC(=O)c2c(OC)cccc2OC)sc2c1CCCC2 the AC50 [1] was 20 µM [falling, single point].

In the case of CC(=O)c1cccc(Nc2ncnc3c2cnn3-c2cccc(Cl)c2)c1, the AC50 [1] is reported as 0.316 µM [falling, full curve, poor fit].

With COc1cccc(NC(=O)CC2Oc3ccccc3NC2=O)c1 (stereo not given) the AC50 [1] was 39.8 µM [falling, single point].

In the case of COc1cccc(NC(=O)c2oc3ccc(S(=O)(=O)N4CCOCC4)cc3c2C)c1, the AC50 [1] is reported as 12.6 µM [falling, partial curve].

With CC(C)OCCCNC(=O)CN1C(=O)CSc2ccc(S(=O)(=O)N3CCOCC3)cc21 the AC50 [1] was 0.126 µM [rising, full curve, poor fit].

For CCOC(=O)c1[nH]c(C)c(C(=O)Nc2ccc(F)cc2)c1C, the AC50 [2] was 39.8 µM [rising, single point] and the AC50 [3] was 31.6 µM [rising, single point].

In the case of CC(=O)Nc1c(C(=O)Nc2ccccc2F)oc2ccccc12, the AC50 [1] is reported as 2.51 µM [falling, full curve, poor fit].

In the case of CC(C)CNC(=O)NC1C(NC(=O)NCC(C)C)N(C)C(=O)N1C (stereo not given), the AC50 [1] is reported as 0.0631 µM [falling, full curve].

For COc1cc(-c2nc3cnccn3c2Nc2ccc(C(C)C)cc2)ccc1O, the AC50 [1] was 15.8 µM [falling, partial curve].

In the case of COc1ccc(OCc2nnc3n2N=C(c2ccc(OC)cc2)CS3)cc1, the AC50 [1] is reported as 25.1 µM [falling, single point].
